Where a name gives a salt, the structure may show the parent alone. Some compounds share one wording; it may come from a single statement.

The test system of this series is 5-HT3 receptor. Briefly: Inhibition of the binding of ^3 H-GR65630 to 5-HT3 sites in rat entorhinal cortex. Particulars: ^3 H-GR 65630, rat entorhinal cortex, non-linear fitting. An excerpt:
The following Table II reports the data obtained in this in vitro test for a representative group of compounds of the invention in comparison with the known reference compounds MDL 72222 and Metoclopramide.
5-HT3 binding affinity ^(a) for rat entorhinal cortex
^(a) [^3 HGR 65630 labelled 5HT3 sites.
The tested compounds were able to interact with 5-HT3 -serotonin receptors labelled in the entorhinal cortex of the rat brain with ^3 H-GR 65630.
In the case of `Cl.O=C1N(C2CN3CCC2CC3)CC2COc3ccc(Cl)cc3N12` (stereo not drawn) [FCE 26781, 2,3,3a,4-tetrahydro-2-(1-azabicyclo [2.2.2]oct-3-yl)-8-chloro-1H-imidazo[5,1-c][1,4]benzoxazin-1-one hydrochloride], the displacement fitting model result was “two site non-linear fitting model”. For `CN1C2CCC1CC(N1CC3COc4ccc(Cl)cc4N3C1=O)C2` (stereo not drawn) [FCE 26783, (endo)-2,3,3a,4-tetrahydro-8-chloro-2-(8-methyl-8-azabicyclo [3.2.1]oct-3-yl)-1H-imidazo[5,1-c][1,4]benzoxazin-1-one hydrochloride], the displacement fitting model entry is “one site non-linear fitting”.

As for `CN1C2CCC1CC(N1CC3COc4ccccc4N3C1=O)C2` (stereo not drawn) [FCE 26878, (endo)-2,3,3a,4-tetrahydro-2-(8-methyl-8-azabicyclo[3.2.1]oct-3-yl)-1H-imidazo[5,1-c][1,4]benzoxazin-1-one, hydrochloride], the displacement fitting model entry is recorded as “one site non-linear fitting”. For the molecule `CN1C2CCCC1CC(N1CC3COc4ccccc4N3C1=O)C2` (stereo not drawn) [FCE 26963, (endo)-2,3,3a,4-tetrahydro-2-(9-methyl-9-azabicyclo[3.3.1]non-3-yl)-1H-imidazo[5,1-c][1,4]benzoxazin-1-one hydrochloride], the displacement fitting model result is reported as “two site non-linear fitting model”. On to `CN1C2CCC1CC(OC(=O)c1cc(Cl)cc(Cl)c1)C2` (stereo not drawn) [MDL 72222, reference compound], for which the displacement fitting model result was “one site non-linear fitting”. The result for `CCN(CC)CCNC(=O)c1cc(Cl)c(N)cc1OC` [Metoclopramide, reference compound] reads “one site non-linear fitting”.

For the origin of these results see patent publication US5364854A, “Derivatives of substituted imidazo benzoxazin-1-one and process for their preparation” (Farmitalia Carlo Erba S.r.l., priority 1992, dated 1994).
